The record followed here is publication PMC6733861.

By UniProt entry, the sequences of proteins in these tests, tags left out. Where a name states a change or a piece, a line headed by the entry shows the natural chain unless it says otherwise.
UniProt P19490: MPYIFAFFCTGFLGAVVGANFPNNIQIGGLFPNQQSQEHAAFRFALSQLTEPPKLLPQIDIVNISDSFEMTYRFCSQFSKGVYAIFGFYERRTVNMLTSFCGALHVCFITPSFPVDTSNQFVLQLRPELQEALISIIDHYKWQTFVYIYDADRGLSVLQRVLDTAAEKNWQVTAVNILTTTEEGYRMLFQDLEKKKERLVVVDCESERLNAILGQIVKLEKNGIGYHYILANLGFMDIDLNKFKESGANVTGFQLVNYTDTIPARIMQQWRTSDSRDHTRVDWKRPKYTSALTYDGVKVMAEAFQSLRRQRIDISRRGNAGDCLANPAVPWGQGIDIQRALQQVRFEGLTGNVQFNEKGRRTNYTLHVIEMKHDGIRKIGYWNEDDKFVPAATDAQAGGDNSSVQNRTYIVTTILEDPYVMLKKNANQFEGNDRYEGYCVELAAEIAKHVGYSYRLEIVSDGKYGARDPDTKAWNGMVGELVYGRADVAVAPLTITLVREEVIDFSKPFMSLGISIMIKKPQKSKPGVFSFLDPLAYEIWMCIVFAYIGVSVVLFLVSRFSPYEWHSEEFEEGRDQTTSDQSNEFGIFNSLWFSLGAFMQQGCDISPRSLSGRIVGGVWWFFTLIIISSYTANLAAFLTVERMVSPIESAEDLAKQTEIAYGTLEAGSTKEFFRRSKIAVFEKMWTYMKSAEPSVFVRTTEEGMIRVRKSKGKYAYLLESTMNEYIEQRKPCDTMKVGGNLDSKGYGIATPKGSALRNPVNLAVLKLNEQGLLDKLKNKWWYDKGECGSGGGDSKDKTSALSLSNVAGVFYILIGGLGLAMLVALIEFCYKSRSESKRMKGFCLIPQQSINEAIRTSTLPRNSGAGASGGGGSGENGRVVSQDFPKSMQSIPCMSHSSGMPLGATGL
UniProt P46462: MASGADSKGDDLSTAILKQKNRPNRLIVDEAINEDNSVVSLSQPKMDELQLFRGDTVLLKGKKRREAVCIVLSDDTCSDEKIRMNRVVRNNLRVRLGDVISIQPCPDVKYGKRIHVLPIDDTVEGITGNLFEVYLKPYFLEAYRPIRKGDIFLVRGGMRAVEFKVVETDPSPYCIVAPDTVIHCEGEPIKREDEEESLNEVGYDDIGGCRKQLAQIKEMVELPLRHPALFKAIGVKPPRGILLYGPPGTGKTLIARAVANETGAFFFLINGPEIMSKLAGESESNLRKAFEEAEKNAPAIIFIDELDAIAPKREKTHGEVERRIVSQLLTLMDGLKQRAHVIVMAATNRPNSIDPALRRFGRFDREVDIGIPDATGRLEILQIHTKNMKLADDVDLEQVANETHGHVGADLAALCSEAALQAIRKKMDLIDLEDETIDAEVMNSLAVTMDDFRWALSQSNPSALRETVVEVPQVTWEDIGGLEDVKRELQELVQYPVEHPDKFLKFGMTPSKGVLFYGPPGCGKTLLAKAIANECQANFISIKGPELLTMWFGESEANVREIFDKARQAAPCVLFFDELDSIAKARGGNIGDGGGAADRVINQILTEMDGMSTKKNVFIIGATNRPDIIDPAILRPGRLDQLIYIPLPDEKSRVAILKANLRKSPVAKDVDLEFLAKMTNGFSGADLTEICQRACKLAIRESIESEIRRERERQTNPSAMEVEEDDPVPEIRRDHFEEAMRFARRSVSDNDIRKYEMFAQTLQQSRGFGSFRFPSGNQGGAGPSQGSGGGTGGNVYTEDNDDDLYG

In this assay the target is GluA1Δ510-541 (UniProt P19490). The experiment in a line: co-IP; COS7 cells co-transfected with p97 and HA-GluA1, HA-GluA2 or a GluA1 deletion or swap construct; RIPA lysate; IP with anti-GluA1, anti-GluA2 or anti-HA; blot for p97; also after DBeQ (0, 0.1, 1, 10, 50 μM; 30 min) on the cells.

No constants are given. Whether binding was seen depends on the method and setting. Binding seen in cells or lysates may run through a third protein. Binding calls can cover weak binding; strength is not graded here.

Regarding “p97 expressed in mammalian cells (pcDNA3.1) (from UniProt P46462 1-806)”, the binding result is recorded as “binds”.
